Values of other authors, collected in patent EP2186515A1, “PHARMACEUTICAL COMPOSITION COMPRISING THE COMBINATION OF AN ANTI-DEPRESSIVE AGENT AND AN ANSIOLYTIC AGENT FOR CONTROL AND TREATMENT OF DEPRESSIVE DISORDERS” (World Trade Import-Export, WTIE A.G., priority 2007, dated 2009).

Test system: plasma proteins
Settings: cited from earlier work

## CN[C@H]1CC[C@@H](c2ccc(Cl)c(Cl)c2)c2ccccc21 [Sertraline]
  attached to plasma proteins: 99%
